Some entries share one result that the patent states for a list of compounds.
Key:
[1] = test system: Haemonchus nematode (Haemonchus contortus) L-1 stage larvae; assay: Impact evaluation test on larvae motility of Haemonchus nematode (96-well plate); format: in vivo; conditions: final concentration 50 ppm, twenty L-1 stage larvae, 4 days
[2] = test system: Dog heartworm (Dirofilaria immitis) L-1 stage larvae; assay: Impact evaluation test on larvae motility of dog heartworm (96-well plate); format: in vivo; conditions: final concentration 50 ppm, five hundred L-1 stage larvae, 3 days

## CCS(=O)(=O)n1c(-n2cc(Br)c(C(F)(F)F)n2)nc2ccccc21 [Compound 2-14]
[1]
  corrected motility impediment rate, activity level: A (the corrected motility impediment rate is 100%)
[2]
  corrected motility impediment rate, activity level: A (the corrected motility impediment rate is 100%)

Reference: patent US12389911B2, “Benzimidazole compound or salt thereof, agricultural and horticultural insecticidal and acaricidal agent containing said compound, and method for using same” (NIHON NOHYAKU CO., LTD., priority 2019, dated 2025)
